Results deposited as PubChem BioAssay AID602196 (INSERM, 2012).

Screen: 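Modifiers of cisplatin sensitivity in A549 cells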
System: human A549 lung cancer cells
Knock-down reagent: siRNA pair against human genes
Time to read-out: 48 h transfection before cisplatin; time from cisplatin to read-out not stated
Challenge: cisplatin at a dose killing half of control-siRNA cells; exact dose and duration not given
Read-out: 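Cisplatin cell death as a shift from the 50% death seen with control siRNA; siRNAs toxic or growth-blocking alone scored 0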
Scale: two-siRNA summed score (-2 to +2): higher = both siRNAs protect from cisplatin killing; -2 means both sensitise; mean protection from cisplatin (shift in death) and protection from cisplatin (shift in death), siRNA C: higher = protection from cisplatin killing
Active means: 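siRNAs harmful alone (LDH or WST-1) get 0; others get +1 for less and -1 for more cisplatin killing; genes are active when the two siRNAs give the same sign, summing to ±2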
Calls: active = both siRNAs shift cisplatin killing the same way; inactive = no consistent shift, or siRNA harmful alone
This is one part, drawn at random, of about 23,000 deposited reagents. Over the whole deposit, 455 (2%) got an active call. 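Active includes both protection and sensitisation; some change values fall well beyond the stated -50 to +50 range.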 A number with no mark means an inactive call. Further read-outs or replicates are left out here. No sequences are given here. Not stated in the record: the amount of reagent.

Target gene	two-siRNA summed score (-2 to +2)	mean protection from cisplatin (shift in death) (%)	protection from cisplatin (shift in death), siRNA C (%)
ZNF672 (GeneID 79894)	1	3.7	16.4
MTA1 (GeneID 9112)	0	-7.9	-19.6
SLC17A6 (GeneID 57084)	0	13.7	13.7
FAAP20 (GeneID 199990)	0	-3.6	-2.6
ETV6 (GeneID 2120)	0	4.7	6.9
WDR5B (GeneID 54554)	0	3.6	-1.3
LOC389777	0	2.3	0.9
PLOD2 (GeneID 5352)	0	9.4	9.7
CCND2 (GeneID 894)	0	5.1	6
MED6 (GeneID 10001)	0	-12.6	-22.1
HIF1A (GeneID 3091)	1	15	13.6
LOC284402	0	-14.2	-26.9
CXCR4 (GeneID 7852)	0	6.4	3.1
PIWIL4 (GeneID 143689)	0	9.4	14.6
SIMC1 (GeneID 375484)	0	0.3	0.5
DROSHA (GeneID 29102)	0	1.9	3.4
TTC21A (GeneID 199223)	-1	-5	3
LOC442125	2 (active)	21.4	25.1
OR4C3 (GeneID 256144)	0	5.3	13.4
LINC01684 (GeneID 105372751)	0	-2.3	2.7
NPHS2 (GeneID 7827)	1	-2.5	-15.9
EIF4EBP3 (GeneID 8637)	0	6.3	22.6
MGME1 (GeneID 92667)	0	-6.8	-9.7
MCC (GeneID 4163)	0	10.7	16
SCARA5 (GeneID 286133)	1	4.8	19.9
TMEM177 (GeneID 80775)	-1	-1.8	20.5
DUSP5 (GeneID 1847)	1	4.9	1.6
P4HTM (GeneID 54681)	0	-16	-32
PRDM1 (GeneID 639)	-1	-1.8	5
DNAJC19 (GeneID 131118)	0	7.7	8.3
PPP3CC (GeneID 5533)	1	10	30.1
HMGCR (GeneID 3156)	0	2	4
FKBP11 (GeneID 51303)	0	4	-3.2
MAN2A2 (GeneID 4122)	0	4.1	15.2
ELMOD3 (GeneID 84173)	0	8.7	11.3
EPHX4 (GeneID 253152)	0	17.4	14.2
THAP4 (GeneID 51078)	0	-4.8	-1.1
LOC389150	1	15.9	22.1
TMEM50B (GeneID 757)	0	3.4	-4.4

A few values from the entries so far.
For “protection from cisplatin (shift in death), siRNA C (%)”, PLOD2 (GeneID 5352) has 9.7
MGME1 (GeneID 92667), protection from cisplatin (shift in death), siRNA C (%) → -9.7
